The results in this text go back to paper PMC5244668.

By UniProt entry, the sequences of proteins in these tests, tags left out. Residues count along the entry.
UniProt P08575, residues 599-1306: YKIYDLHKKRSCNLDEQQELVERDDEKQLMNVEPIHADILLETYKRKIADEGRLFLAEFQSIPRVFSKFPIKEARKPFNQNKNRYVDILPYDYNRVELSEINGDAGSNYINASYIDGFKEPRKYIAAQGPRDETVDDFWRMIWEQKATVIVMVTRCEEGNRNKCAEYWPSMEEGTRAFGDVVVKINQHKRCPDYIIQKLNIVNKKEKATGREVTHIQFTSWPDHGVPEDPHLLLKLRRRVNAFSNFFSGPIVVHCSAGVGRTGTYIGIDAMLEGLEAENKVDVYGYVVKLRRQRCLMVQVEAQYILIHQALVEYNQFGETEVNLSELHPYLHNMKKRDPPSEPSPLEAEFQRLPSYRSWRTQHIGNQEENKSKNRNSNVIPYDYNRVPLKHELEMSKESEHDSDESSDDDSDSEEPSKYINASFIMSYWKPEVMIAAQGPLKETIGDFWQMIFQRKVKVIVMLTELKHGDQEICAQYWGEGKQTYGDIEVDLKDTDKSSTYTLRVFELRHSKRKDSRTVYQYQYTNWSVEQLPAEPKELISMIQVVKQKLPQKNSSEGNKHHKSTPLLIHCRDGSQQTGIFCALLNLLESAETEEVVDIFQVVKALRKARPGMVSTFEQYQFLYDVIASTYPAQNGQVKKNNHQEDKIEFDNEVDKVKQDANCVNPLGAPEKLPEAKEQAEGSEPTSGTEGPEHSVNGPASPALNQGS

The assay deals with T1, protein associated with Toll‐like receptor 4 (PRAT4A), as used in the Biacore binding studies (UniProt Q9BT09).
T1 sequence: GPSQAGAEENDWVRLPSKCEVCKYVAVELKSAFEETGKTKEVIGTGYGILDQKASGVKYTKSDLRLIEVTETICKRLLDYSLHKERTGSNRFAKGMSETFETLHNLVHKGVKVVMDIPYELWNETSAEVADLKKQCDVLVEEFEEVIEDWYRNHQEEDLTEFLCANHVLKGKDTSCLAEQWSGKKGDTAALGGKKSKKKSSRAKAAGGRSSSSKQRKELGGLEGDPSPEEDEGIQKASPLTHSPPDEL
Nature of the assay: SPR; Biacore system; who was immobilised and the conditions not given; told only in the discussion; both purified. (In SPR one partner is held on a chip, and binding of the other changes the refractive index at the surface.)

Results are given in words; binding and its absence hold for the method and conditions named.

As to “soluble cytoplasmic tail of CD45 (from UniProt P08575 599-1306) (domain or fragment)”, the binding result is on record as “no binding”.
